Data from article PMC11649929.
Results are given in words; binding and its absence hold for the method and conditions named. For some assays here: Binding can be weak; no strength is given. For some assays here: In cells and extracts the contact can be indirect.

Chains of the proteins cited; added tags and fusions are not shown. Lines headed by an entry give the natural chain unless they say otherwise; changes in a name come on top.
UniProt P53994: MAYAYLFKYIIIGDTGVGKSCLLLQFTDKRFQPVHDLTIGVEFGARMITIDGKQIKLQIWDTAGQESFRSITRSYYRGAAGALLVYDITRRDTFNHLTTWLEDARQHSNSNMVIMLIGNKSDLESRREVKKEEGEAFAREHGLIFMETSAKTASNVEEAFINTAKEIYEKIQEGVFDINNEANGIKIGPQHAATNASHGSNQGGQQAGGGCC
UniProt Q8VCR2: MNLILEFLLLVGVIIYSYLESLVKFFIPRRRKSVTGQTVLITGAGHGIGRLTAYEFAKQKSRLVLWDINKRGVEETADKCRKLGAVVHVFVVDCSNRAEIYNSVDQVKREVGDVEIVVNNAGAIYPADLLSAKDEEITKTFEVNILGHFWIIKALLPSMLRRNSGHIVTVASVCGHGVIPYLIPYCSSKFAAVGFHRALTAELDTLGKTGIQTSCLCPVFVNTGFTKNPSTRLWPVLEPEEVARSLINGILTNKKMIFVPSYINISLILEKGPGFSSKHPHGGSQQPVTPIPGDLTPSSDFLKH

How the values were obtained:
[1] = target: 3*Flag-Rab2A (Mouse) (mouse) (UniProt P53994); experiment: co-IP; HEK293T cells transfected with Flag-Rab2A and MYC-HSD17B13 plasmids, Flag-affinity beads pulldown
[2] = target: Rab2A (Δ032-042) (mouse) (UniProt P53994); experiment: co-IP; HEK293T cells transfected with 'relative plasmids', Western blotting; beads and tags not told
[3] = target: Rab2A, wild type, expressed from a plasmid in HEK293T cells (tag not told) (mouse) (UniProt P53994); experiment: as above
[4] = target: Rab2A, wild type, expressed from a plasmid in HEK293T cells (tag not told) (mouse) (UniProt P53994); experiment: co-IP; HEK293T cells transfected with Rab2A plasmids with or without HSD17B13 plasmids, with or without A769662 (100 μM, 4 h, DMEM without FBS), EGFP-affinity beads pulldown
[5] = target: Flag-Rab2A, purified protein (mouse) (UniProt P53994); experiment: pull-down; in vitro binding assay with purified GST-HSD17B13 and Flag-Rab2A proteins; beads not told; both purified

In the case of “5*MYC-HSD17B13 (Mouse) (from UniProt Q8VCR2)”, the binding [1] is reported as “binds”.
With “HSD17B13 expressed from a plasmid in HEK293T cells (tag not told) (from UniProt Q8VCR2)” the binding [2] was “no binding”, the binding [3] was “binds” and the binding [4] was “binds”.
For “GST-HSD17B13 (Mouse), purified protein (from UniProt Q8VCR2)”, the binding [5] was “binds”.
